Data from patent publication US20190037848A1, “Novel isothiazolamides, processes for their preparation and their use as herbicides and/or plant growth regulators” (BAYER CROPSCIENCE AKTIENGESELLSCHAFT, priority 2014, published 2019).
Some results were stated once for a whole list of compounds, not compound by compound. Some compounds share one range, which may span the group rather than tell each member.

Key:
[1] = tested on: harmful plants ALOMY, AVEFA, ECHCG, LOLMU, SETVI, ABUTH, AMARE, MATIN, PHBPU, POLCO, STEME, VIOTR, VERPE; experiment: Herbicidal pre-emergence action (greenhouse pot test); type: in vivo; conditions: pre-emergence method, against several harmful plants; for very good activity (herbicidal): 80 g of active substance per hectare; for excellent activity (herbicidal): 320 g of active substance per hectare
[2] = tested on: harmful plants ALOMY, AVEFA, ECHCG, LOLMU, SETVI, ABUTH, AMARE, MATIN, PHBPU, POLCO, STEME, VIOTR, VERPE; experiment: Herbicidal post-emergence action (greenhouse pot test); type: in vivo; conditions: post-emergence method, against several harmful plants; for very good activity (herbicidal): 80 g of active substance per hectare; for excellent activity (herbicidal): 320 g of active substance per hectare

Structure (SMILES): CC(=O)Nc1nsc(C(=O)NCc2c(F)cc(F)cc2F)c1F [II-304]
- very good activity (herbicidal) [1]: 80-100%
- excellent activity (herbicidal) [1]: 90-100%
- very good activity (herbicidal) [2]: 80-100%
- excellent activity (herbicidal) [2]: 90-100%

Structure (SMILES): O=C(NCc1ccc(F)cc1F)c1snc(NC(=O)C(F)F)c1F [II-307]
- very good activity (herbicidal) [1]: 80-100%
- excellent activity (herbicidal) [1]: 90-100%
- very good activity (herbicidal) [2]: 80-100%
- excellent activity (herbicidal) [2]: 90-100%

Structure (SMILES): O=C(NCc1ccc(F)cc1F)c1snc(NC(=O)C(F)(F)C(F)(F)F)c1F [II-308]
- very good activity (herbicidal) [1]: 80-100%
- excellent activity (herbicidal) [1]: 90-100%
- very good activity (herbicidal) [2]: 80-100%
- excellent activity (herbicidal) [2]: 90-100%

Structure (SMILES): O=C(NCc1ccc(F)cc1F)c1snc(NC(=O)C(F)(F)C(F)F)c1F [II-309]
- very good activity (herbicidal) [1]: 80-100%
- excellent activity (herbicidal) [1]: 90-100%
- very good activity (herbicidal) [2]: 80-100%
- excellent activity (herbicidal) [2]: 90-100%

Structure (SMILES): CC(=O)Nc1nsc(C(=O)NCc2ccc(F)cc2F)c1F [II-311]
- very good activity (herbicidal) [1]: 80-100%
- excellent activity (herbicidal) [1]: 90-100%
- very good activity (herbicidal) [2]: 80-100%
- excellent activity (herbicidal) [2]: 90-100%

Structure (SMILES): O=C(CC(F)(F)F)Nc1nsc(C(=O)NCc2ccc(F)cc2F)c1F [II-312]
- very good activity (herbicidal) [1]: 80-100%
- excellent activity (herbicidal) [1]: 90-100%
- very good activity (herbicidal) [2]: 80-100%
- excellent activity (herbicidal) [2]: 90-100%

Structure (SMILES): O=C(NCc1ccc(F)cc1)c1snc(NC(=O)C(F)F)c1F [II-314]
- very good activity (herbicidal) [1]: 80-100%
- excellent activity (herbicidal) [1]: 90-100%
- very good activity (herbicidal) [2]: 80-100%
- excellent activity (herbicidal) [2]: 90-100%

Structure (SMILES): O=C(NCC1CCCCC1)c1snc(NC(=O)C(F)Cl)c1Cl (stereo not shown) [II-327]
- very good activity (herbicidal) [1]: 80-100%
- excellent activity (herbicidal) [1]: 90-100%
- very good activity (herbicidal) [2]: 80-100%
- excellent activity (herbicidal) [2]: 90-100%

Structure (SMILES): O=C(NCC1CCCCC1)c1snc(N(C(=O)C2(F)CC2)C(=O)C2(F)CC2)c1Cl [II-329]
- very good activity (herbicidal) [1]: 80-100%
- excellent activity (herbicidal) [1]: 90-100%
- very good activity (herbicidal) [2]: 80-100%
- excellent activity (herbicidal) [2]: 90-100%

Structure (SMILES): O=C(NCC1CCCCC1)c1snc(N(C(=O)c2ccco2)C(=O)c2ccco2)c1Cl [II-330]
- very good activity (herbicidal) [1]: 80-100%
- excellent activity (herbicidal) [1]: 90-100%
- very good activity (herbicidal) [2]: 80-100%
- excellent activity (herbicidal) [2]: 90-100%

Structure (SMILES): O=C(NCC1CCCCC1)c1snc(N(C(=O)C(F)(Cl)C(F)(F)F)C(=O)C(F)(Cl)C(F)(F)F)c1Cl (stereo not shown) [II-332]
- very good activity (herbicidal) [1]: 80-100%
- excellent activity (herbicidal) [1]: 90-100%
- very good activity (herbicidal) [2]: 80-100%
- excellent activity (herbicidal) [2]: 90-100%

Structure (SMILES): CCCCCC(=O)N(C(=O)CCCCC)c1nsc(C(=O)NCC2CCCCC2)c1Cl [II-334]
- very good activity (herbicidal) [1]: 80-100%
- excellent activity (herbicidal) [1]: 90-100%
- very good activity (herbicidal) [2]: 80-100%
- excellent activity (herbicidal) [2]: 90-100%

Structure (SMILES): CCCCCC(=O)Nc1nsc(C(=O)NCC2CCCCC2)c1Cl [II-335]
- very good activity (herbicidal) [1]: 80-100%
- excellent activity (herbicidal) [1]: 90-100%
- very good activity (herbicidal) [2]: 80-100%
- excellent activity (herbicidal) [2]: 90-100%

Structure (SMILES): O=C(NCC1CCCCC1)c1snc(NC(=O)C(Cl)(Cl)Cl)c1Cl [II-340]
- very good activity (herbicidal) [1]: 80-100%
- excellent activity (herbicidal) [1]: 90-100%
- very good activity (herbicidal) [2]: 80-100%
- excellent activity (herbicidal) [2]: 90-100%

Structure (SMILES): O=C(NCC1CCCCC1)c1snc(NC(=O)C(F)(F)C(F)F)c1Cl [II-341]
- very good activity (herbicidal) [1]: 80-100%
- excellent activity (herbicidal) [1]: 90-100%
- very good activity (herbicidal) [2]: 80-100%
- excellent activity (herbicidal) [2]: 90-100%

Structure (SMILES): COC(=O)CCCC(=O)Nc1nsc(C(=O)NCC2CCCCC2)c1Cl [II-342]
- very good activity (herbicidal) [1]: 80-100%
- excellent activity (herbicidal) [1]: 90-100%
- very good activity (herbicidal) [2]: 80-100%
- excellent activity (herbicidal) [2]: 90-100%

Structure (SMILES): O=C(Nc1nsc(C(=O)NCC2CCCCC2)c1Cl)c1cccs1 [II-346]
- very good activity (herbicidal) [1]: 80-100%
- excellent activity (herbicidal) [1]: 90-100%
- very good activity (herbicidal) [2]: 80-100%
- excellent activity (herbicidal) [2]: 90-100%

Structure (SMILES): O=C(Nc1nsc(C(=O)NCC2CCCCC2)c1Cl)c1ccco1 [II-347]
- very good activity (herbicidal) [1]: 80-100%
- excellent activity (herbicidal) [1]: 90-100%
- very good activity (herbicidal) [2]: 80-100%
- excellent activity (herbicidal) [2]: 90-100%

Structure (SMILES): O=C(NCC1CCCCC1)c1snc(NC(=O)C(F)(F)C(F)(F)C(F)(F)C(F)(F)Cl)c1Cl [II-348]
- very good activity (herbicidal) [1]: 80-100%
- excellent activity (herbicidal) [1]: 90-100%
- very good activity (herbicidal) [2]: 80-100%
- excellent activity (herbicidal) [2]: 90-100%

Structure (SMILES): O=C(NCC1CCCCC1)c1snc(NC(=O)C(F)(F)C(F)(F)Cl)c1Cl [II-349]
- very good activity (herbicidal) [1]: 80-100%
- excellent activity (herbicidal) [1]: 90-100%
- very good activity (herbicidal) [2]: 80-100%
- excellent activity (herbicidal) [2]: 90-100%

Structure (SMILES): O=C(NCC1CCCCC1)c1snc(NC(=O)C2(F)CC2)c1Cl [II-350]
- very good activity (herbicidal) [1]: 80-100%
- excellent activity (herbicidal) [1]: 90-100%
- very good activity (herbicidal) [2]: 80-100%
- excellent activity (herbicidal) [2]: 90-100%

Structure (SMILES): O=C(NCC1CCCCC1)c1snc(NC(=O)C2(Cl)CC2)c1Cl [II-351]
- very good activity (herbicidal) [1]: 80-100%
- excellent activity (herbicidal) [1]: 90-100%
- very good activity (herbicidal) [2]: 80-100%
- excellent activity (herbicidal) [2]: 90-100%

Structure (SMILES): O=C(NCC1CCCCC1)c1snc(NC(=O)C(F)(Cl)C(F)(F)F)c1Cl (stereo not shown) [II-352]
- very good activity (herbicidal) [1]: 80-100%
- excellent activity (herbicidal) [1]: 90-100%
- very good activity (herbicidal) [2]: 80-100%
- excellent activity (herbicidal) [2]: 90-100%

Structure (SMILES): CCC(=O)Nc1nsc(C(=O)NCC2CCCCC2)c1Cl [II-355]
- very good activity (herbicidal) [1]: 80-100%
- excellent activity (herbicidal) [1]: 90-100%
- very good activity (herbicidal) [2]: 80-100%
- excellent activity (herbicidal) [2]: 90-100%

Structure (SMILES): O=C(NCc1ccc(F)cc1)c1snc(NC(=O)C(F)F)c1Cl [II-356]
- very good activity (herbicidal) [1]: 80-100%
- excellent activity (herbicidal) [1]: 90-100%
- very good activity (herbicidal) [2]: 80-100%
- excellent activity (herbicidal) [2]: 90-100%

Structure (SMILES): CCCC(=O)Nc1nsc(C(=O)NCc2ccc(F)cc2)c1Cl [II-359]
- very good activity (herbicidal) [1]: 80-100%
- excellent activity (herbicidal) [1]: 90-100%
- very good activity (herbicidal) [2]: 80-100%
- excellent activity (herbicidal) [2]: 90-100%

Structure (SMILES): O=C(Nc1nsc(C(=S)NC2CCCCC2)c1Cl)C(F)(F)C(F)(F)F [III-85]
- very good activity (herbicidal) [1]: 80-100%
- excellent activity (herbicidal) [1]: 90-100%
- very good activity (herbicidal) [2]: 80-100%
- excellent activity (herbicidal) [2]: 90-100%

Structure (SMILES): O=C(Nc1nsc(C(=S)NC2CCCCC2)c1Cl)C(F)F [III-89]
- very good activity (herbicidal) [1]: 80-100%
- excellent activity (herbicidal) [1]: 90-100%
- very good activity (herbicidal) [2]: 80-100%
- excellent activity (herbicidal) [2]: 90-100%
